These results are taken from publication PMC11628342.

No constants are given. Whether binding was seen depends on the method and setting. Binding seen in cells or lysates may run through a third protein. Some binding calls cover weakened binding; strength is not graded here. For part of these data: Sequences can lack the tags named with a protein.

The target of assay [1] is T1, ribonucleotide reductase M2 (RRM2), FLAG-tagged (UniProt P31350).
T1 sequence: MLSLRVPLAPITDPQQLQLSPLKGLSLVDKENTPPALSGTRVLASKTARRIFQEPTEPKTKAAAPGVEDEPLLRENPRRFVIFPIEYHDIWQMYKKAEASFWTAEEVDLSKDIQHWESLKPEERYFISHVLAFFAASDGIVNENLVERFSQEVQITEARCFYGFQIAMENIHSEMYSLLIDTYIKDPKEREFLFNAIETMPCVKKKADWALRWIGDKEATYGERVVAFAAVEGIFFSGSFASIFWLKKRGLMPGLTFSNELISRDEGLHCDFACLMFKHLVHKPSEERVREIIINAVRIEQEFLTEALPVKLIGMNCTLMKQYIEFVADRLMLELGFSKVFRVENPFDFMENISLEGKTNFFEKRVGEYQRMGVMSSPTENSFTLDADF
The assay is described as follows: co-IP; Myc- and FLAG-tagged plasmids co-transfected into HEK293T cells; immunoprecipitation with anti-FLAG antibody (beads at 4 °C overnight, washed 6 times with PBS); precipitates blotted with anti-Myc and anti-Flag antibodies.

For assay [2], the target named is T2, inhibitor of nuclear factor kappa B kinase subunit epsilon (IKBKE), FLAG-tagged (UniProt Q14164).
T2 sequence: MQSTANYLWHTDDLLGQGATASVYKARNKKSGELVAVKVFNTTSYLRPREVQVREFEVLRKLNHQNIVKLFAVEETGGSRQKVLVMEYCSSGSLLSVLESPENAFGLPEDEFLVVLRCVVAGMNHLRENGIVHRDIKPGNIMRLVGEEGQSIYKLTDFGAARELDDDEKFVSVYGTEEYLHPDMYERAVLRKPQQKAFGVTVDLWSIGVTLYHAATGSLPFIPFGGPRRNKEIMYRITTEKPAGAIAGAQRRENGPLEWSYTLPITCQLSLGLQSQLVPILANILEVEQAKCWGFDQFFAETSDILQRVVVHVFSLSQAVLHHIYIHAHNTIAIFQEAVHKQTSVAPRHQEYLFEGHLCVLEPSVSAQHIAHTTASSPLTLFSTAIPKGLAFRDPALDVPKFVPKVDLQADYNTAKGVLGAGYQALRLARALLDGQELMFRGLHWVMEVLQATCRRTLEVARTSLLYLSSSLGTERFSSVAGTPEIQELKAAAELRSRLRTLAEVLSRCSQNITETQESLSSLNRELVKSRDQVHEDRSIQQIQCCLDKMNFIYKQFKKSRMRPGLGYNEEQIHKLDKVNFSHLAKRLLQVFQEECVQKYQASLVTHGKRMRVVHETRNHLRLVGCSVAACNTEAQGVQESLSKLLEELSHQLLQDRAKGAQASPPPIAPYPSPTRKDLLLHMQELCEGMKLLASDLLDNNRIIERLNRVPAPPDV
The assay is described as above.

The target in assay [3] is T3, endogenous IKBKE (human (endogenous in 769-P and 786-O)) (UniProt Q14164).
T3 sequence: T2 sequence
The assay is described as follows: co-IP; whole-cell lysates of 769-P and 786-O cells precipitated with IKBKE antibodies (protein A + G beads, 4 °C overnight); precipitates immunoblotted for the endogenous proteins. A general note: A western blot detects proteins with antibodies after separation by electrophoresis.

B1: inhibitor of nuclear factor kappa B kinase subunit epsilon (IKBKE), Myc-tagged (protein, UniProt Q14164 1-716)
chain: T2 sequence
In the case of B1, in assay [1], the binding result was “binds”.

B2: ribonucleotide reductase M2 (RRM2), Myc-tagged (protein, UniProt P31350 1-389)
chain: T1 sequence
As for B2, the binding result in assay [2] is given as “binds”.

B3: endogenous RRM2 (protein, UniProt P31350 1-389)
chain: T1 sequence
For B3, the binding result in assay [3] is reported as “binds”.
